Test results reported in the DeepSol protein solubility set.

Assay: soluble on expression in E. coli; label from the status in PepcDB or PDB records

PWQKFIIYSLLGFYIKGTIIRRFKEAFIFLPRKNGKTRFVAALSWALALLERKSGSKIYIVGAALEQSLQSFNFINFNIKEMGEEDSFRVLDNNQEHSISGDFGDGSLYIKALAANPDRQDSLNCNVGIADELHAYKTPKQYNIIKEAMKAYTNKLMIGITTAGDNMSSFCYQRLQYCKKILDDTVKDEAYFVFIAKADEDEKGEVDYTDPKQHEKANPNYGITIRPADMTNDSLQAQNDPQQRKDFLSKSLNIYTSAMKAYFNIDEFKASDSKYNWTLEELAKLPIKWYGGADLAKLHDLTAAALYGRYVMDDGTEVDIVITHAFFPIVMANKKADEDNIPLFGWKDDGVLTMTNTPTTNFAVIVNWFKEMKNKGFDIKLVGFDKKFGREFFYLMKKSGIKIVDQPQYFYKKSEGFRRIETKAKDGHFYYCHNQSFEYCVQNVRAIEKTDDMIQYEKVDGDGGSQRIDLFDAAVFGAVQMLEDIQMSAVASKWLNSN
soluble on expression in E. coli: not soluble
